Data published in patent US20240215576A1, “HEAT-RESISTANT MOLD GROWTH INHIBITOR, FOOD AND DRINK IN WHICH GROWTH OF HEAT-RESISTANT MOLD IS INHIBITED, AND METHOD FOR INHIBITING GROWTH OF HEAT-RESISTANT MOLD” (NIPPON SHINYAKU CO., LTD., priority 2021, published 2024).
Some of these results come from one statement about several compounds together.

Columns and labels:
N. primulina = assay: Growth of N. primulina in Trypticase soy broth medium stored 7 days at 25° C.; format: cell-based, Neosartorya primulina; settings: 1000 ppm
Protocol: (§1) Diethyl fumarate and 2-decenoic acid were prepared for use in Examples. In addition, the following components reported to have a growth inhibition effect against normal mold (non-heat-resistant mold) were prepared for use in Comparative Examples: palmitic acid, trans-anethole, benzyl alcohol, cinnamic acid, hinokitiol, salicylic acid, hexanal, 2-mercapto benzothiazole, p-cymene, 1,8-cineole, α-pinene, estragole, 4-hydroxy-3,5-dimethoxybenzoic acid, and linalyl acetate. Then, each component was added to a medium of Trypticase soy broth such that the concentration of each component was as shown in Table 3 below.
(§2) These media were stored for 7 days under an atmosphere at 25° C. […] In Table, those showing the growth are represented by “+,” and those showing no growth are represented by “−.”

B. fulva = assay: Growth of B. fulva in Trypticase soy broth medium stored 7 days at 25° C.; format: cell-based, Byssochlamys fulva; settings: 1000 ppm
Protocol: as §1, §2

Row | SMILES | growth inhibition effect against N. primulina (N. primulina) | growth inhibition effect against B. fulva (B. fulva)
1 | C=CCc1ccc(OC)cc1 [Estragole] | do not exhibit growth inhibition effect | do not exhibit growth inhibition effect
2 | C=CC(C)(CCC=C(C)C)OC(C)=O (stereo not shown) [Linalyl acetate] | do not exhibit growth inhibition effect | do not exhibit growth inhibition effect
